# Test results reported in the supplement of paper PMC8728848.
# Some of the results follow.
# B1: FimA (Actinomyces oris) (protein)
# chain: MHHHHHHSSGVDLGTENLYFQSNAETPNYGNIKTDATGSLVIHKHLTGGGKDIGTPTGTAQNADDKGPAVEGVVFTAYPITDINLKDPAGWDTISNLSRTGVPDSACANPAAPTLGAHQFGTPKVSPATTKEGLATITEMPVQAYLVCETTTPGDIVQKAKPFVVTIPHPNTAAGADGQWIYDVNVYPKNEAIDVDKTIQAQKLNGYGVGSLIKFPVESTAPTLDAKSFYKYFQLKDTLDERLSEVTATDVSLEGTPLQPTDYKVETKQQTVTVTFTAEGLKKIKAAPGKKVSAVFQGKVTKAGNGAITNRAQVISDTLYAEQPPTPETPPTDPENPPTSDEVISRWGDLSIKKVDTHQQGQTKAGLQGAQFQLYKAKNAYANTCSNEKEGAPIAINGQTTLTTDAQGAIDIKGLFISDSIDGADRDNQVNAMERCYVLVETKAPAGYVLPAGNGAATPVKVKAGEETTDNVTVENTKQSVPGLPLTG
# Key:
# Assay in all cases: glycan array binding signal (z-score within array); higher = stronger binding
# Details in all cases: glycan notation: IUPAC condensed, linker removed
# Neu5Ac(a2-8)Neu5Ac = biological target: Neu5Ac(a2-8)Neu5Ac
# How it was run: (§1)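 Arrays were curated from the Consortium for Functional Glycomics database, 3228 in total, and kept only where the protein sequence was available. Binding is expressed as a within-array Z-score. This score was averaged across arrays of the same protein sequence at different concentrations or buffers and across linkers, and negative values can be read as non-binding.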
# [1] = biological target: Neu5Ac(a2-8)Neu5Ac(a2-3)Gal(b1-3)GalNAc(b1-4)[Neu5Ac(a2-3)]Gal(b1-4)Glc
# How it was run: as §1
# [2] = biological target: Neu5Ac(a2-8)Neu5Ac(a2-3)Gal(b1-3)GalNAc(b1-4)[Neu5Ac(a2-8)Neu5Ac(a2-3)]Gal(b1-4)Glc
# How it was run: as §1
# [3] = biological target: Neu5Ac(a2-8)Neu5Ac(a2-3)Gal(b1-4)Glc
# How it was run: as §1
# [4] = biological target: Neu5Ac(a2-8)Neu5Ac(a2-3)Gal(b1-4)GlcNAc
# How it was run: as §1
# [5] = biological target: Neu5Ac(a2-8)Neu5Ac(a2-3)[Gal(b1-3)GalNAc(b1-4)]Gal(b1-4)Glc
# How it was run: as §1
# [6] = biological target: Neu5Ac(a2-8)Neu5Ac(a2-3)[GalNAc(b1-4)]Gal(b1-4)Glc
# How it was run: as §1
# [7] = biological target: Neu5Ac(a2-8)Neu5Ac(a2-8)Neu5Ac
# How it was run: as §1
# [8] = biological target: Neu5Ac(a2-8)Neu5Ac(a2-8)Neu5Ac(a2-3)Gal(b1-4)Glc
# How it was run: as §1
# [9] = biological target: Neu5Ac(a2-8)Neu5Ac(a2-8)Neu5Ac(a2-3)[Gal(b1-3)GalNAc(b1-4)]Gal(b1-4)Glc
# How it was run: as §1
# [10] = biological target: Neu5Ac(a2-8)Neu5Ac(a2-8)Neu5Ac(a2-3)[GalNAc(b1-4)]Gal(b1-4)Glc
# How it was run: as §1
# [11] = biological target: Neu5Ac(a2-8)Neu5Ac(a2-8)Neu5Ac(a2-8)Neu5Ac(a2-3)[GalNAc(b1-4)]Gal(b1-4)Glc
# How it was run: as §1
# [12] = biological target: Neu5Ac(a2-8)Neu5Gc(a2-3)Gal(b1-4)GlcNAc
# How it was run: as §1
# [13] = biological target: Neu5Ac(b2-6)Gal(b1-4)GlcNAc
# How it was run: as §1
# Neu5Ac(b2-6)GalNAc = biological target: Neu5Ac(b2-6)GalNAc
# How it was run: as §1
# [14] = biological target: Neu5Ac9Ac(a2-3)Gal(b1-3)GlcNAc
# How it was run: as §1
# [15] = biological target: Neu5Ac9Ac(a2-3)Gal(b1-4)GlcNAc
# How it was run: as §1
# [16] = biological target: Neu5Ac9Ac(a2-6)Gal(b1-4)GlcNAc
# How it was run: as §1
# [17] = biological target: Neu5Gc(a2-3)Gal(b1-3)GlcNAc
# How it was run: as §1
# [18] = biological target: Neu5Gc(a2-3)Gal(b1-3)[Fuc(a1-4)]GlcNAc
# How it was run: as §1
# Neu5Gc(a2-3)Gal(b1-4)Glc = biological target: Neu5Gc(a2-3)Gal(b1-4)Glc
# How it was run: as §1
# [19] = biological target: Neu5Gc(a2-3)Gal(b1-4)GlcNAc
# How it was run: as §1
# [20] = biological target: Neu5Gc(a2-3)Gal(b1-4)GlcNAc(b1-3)Gal(b1-4)GlcNAc(b1-2)Man(a1-3)[Neu5Gc(a2-3)Gal(b1-4)GlcNAc(b1-3)Gal(b1-4)GlcNAc(b1-2)Man(a1-6)]Man(b1-4)GlcNAc(b1-4)GlcNAc
# How it was run: as §1
# [21] = biological target: Neu5Gc(a2-3)Gal(b1-4)[Fuc(a1-3)]GlcNAc
# How it was run: as §1
# [22] = biological target: Neu5Gc(a2-6)Gal(b1-4)GlcNAc
# How it was run: as §1
# Neu5Gc(a2-6)GalNAc = biological target: Neu5Gc(a2-6)GalNAc
# How it was run: as §1
# [23] = biological target: Neu5Gc(a2-8)Neu5Ac(a2-3)Gal(b1-4)GlcNAc
# How it was run: as §1
# [24] = biological target: Neu5Gc(a2-8)Neu5Gc(a2-3)Gal(b1-4)GlcNAc
# How it was run: as §1
# [25] = biological target: Neu5Gc(a2-8)Neu5Gc(a2-3)Gal(b1-4)GlcNAc(b1-3)Gal(b1-4)GlcNAc
# How it was run: as §1
# [26] = biological target: Neu5Gc(a2-8)Neu5Gc(a2-6)Gal(b1-4)GlcNAc
# How it was run: as §1
# [27] = biological target: Neu5Gc(b2-6)Gal(b1-4)GlcNAc
# How it was run: as §1
binder,measurement,setting,value
B1,glycan array binding signal (z-score),Neu5Ac(a2-8)Neu5Ac,0.181
same,glycan array binding signal (z-score),[1],-0.825
same,glycan array binding signal (z-score),[2],-0.234
same,glycan array binding signal (z-score),[3],-0.282
same,glycan array binding signal (z-score),[4],0.185
same,glycan array binding signal (z-score),[5],0.136
same,glycan array binding signal (z-score),[6],-0.366
same,glycan array binding signal (z-score),[7],0.69
same,glycan array binding signal (z-score),[8],0.582
same,glycan array binding signal (z-score),[9],-0.63
same,glycan array binding signal (z-score),[10],-0.278
same,glycan array binding signal (z-score),[11],1.45
same,glycan array binding signal (z-score),[12],0.433
same,glycan array binding signal (z-score),[13],-0.342
same,glycan array binding signal (z-score),Neu5Ac(b2-6)GalNAc,-0.85
same,glycan array binding signal (z-score),[14],-0.549
same,glycan array binding signal (z-score),[15],-0.851
same,glycan array binding signal (z-score),[16],-0.577
same,glycan array binding signal (z-score),[17],-0.744
same,glycan array binding signal (z-score),[18],0.672
same,glycan array binding signal (z-score),Neu5Gc(a2-3)Gal(b1-4)Glc,-0.301
same,glycan array binding signal (z-score),[19],-0.147
same,glycan array binding signal (z-score),[20],-0.219
same,glycan array binding signal (z-score),[21],-0.319
same,glycan array binding signal (z-score),[22],-0.016
same,glycan array binding signal (z-score),Neu5Gc(a2-6)GalNAc,0.563
same,glycan array binding signal (z-score),[23],-0.306
same,glycan array binding signal (z-score),[24],-0.718
same,glycan array binding signal (z-score),[25],0.322
same,glycan array binding signal (z-score),[26],0.225
same,glycan array binding signal (z-score),[27],0.099

# No new results follow: an excerpt of the list.
binder,measurement,setting,value
B1,glycan array binding signal (z-score),[21],-0.319
same,glycan array binding signal (z-score),[22],-0.016
